These results are taken from article PMC7067850, “Identification of highly potent and selective inhibitor, TIPTP, of the p22phox-Rubicon axis as a therapeutic agent for rheumatoid arthritis” (Scientific Reports, 2020).

Test [1] deals with T1, p22phox (human, endogenous) (human (endogenous in monocytes and in synoviocytes of RA patients)) (UniProt P13498).
T1 sequence: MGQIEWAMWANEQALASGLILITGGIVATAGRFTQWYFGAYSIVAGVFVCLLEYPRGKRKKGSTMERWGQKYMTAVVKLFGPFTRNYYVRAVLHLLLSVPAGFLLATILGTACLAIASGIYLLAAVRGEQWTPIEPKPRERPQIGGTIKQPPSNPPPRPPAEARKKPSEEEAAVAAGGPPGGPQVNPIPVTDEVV
As to the kind of experiment: co-IP; endogenous proteins, LPS-primed synoviocytes from patients with RA (or OA) treated with TIPTP, then activated with ATP; IP with anti-p22phox or anti-Rubicon, immunoblot (Fig. 6c, Supplemental Fig. 7). (In western blotting, separated proteins are transferred to a membrane and probed.)

Test [2] deals with T1, p22phox (human, endogenous) (human (endogenous in monocytes and in synoviocytes of RA patients)). The experiment in a line: co-IP; endogenous proteins, LPS-primed human monocytes treated with TIPTP (0.01, 0.1, 1 uM) for 30 min, then activated with ATP for 30 min; IP with anti-p22phox or anti-Rubicon, immunoblot.
Test [3] has as its target T2, Run/cysteine-rich-domain-containing Beclin1-interacting autophagy protein (Rubicon) (mouse, endogenous) (mouse (endogenous in synoviocytes of CIA mice, BMDMs)) (UniProt Q80U62).
T2 sequence: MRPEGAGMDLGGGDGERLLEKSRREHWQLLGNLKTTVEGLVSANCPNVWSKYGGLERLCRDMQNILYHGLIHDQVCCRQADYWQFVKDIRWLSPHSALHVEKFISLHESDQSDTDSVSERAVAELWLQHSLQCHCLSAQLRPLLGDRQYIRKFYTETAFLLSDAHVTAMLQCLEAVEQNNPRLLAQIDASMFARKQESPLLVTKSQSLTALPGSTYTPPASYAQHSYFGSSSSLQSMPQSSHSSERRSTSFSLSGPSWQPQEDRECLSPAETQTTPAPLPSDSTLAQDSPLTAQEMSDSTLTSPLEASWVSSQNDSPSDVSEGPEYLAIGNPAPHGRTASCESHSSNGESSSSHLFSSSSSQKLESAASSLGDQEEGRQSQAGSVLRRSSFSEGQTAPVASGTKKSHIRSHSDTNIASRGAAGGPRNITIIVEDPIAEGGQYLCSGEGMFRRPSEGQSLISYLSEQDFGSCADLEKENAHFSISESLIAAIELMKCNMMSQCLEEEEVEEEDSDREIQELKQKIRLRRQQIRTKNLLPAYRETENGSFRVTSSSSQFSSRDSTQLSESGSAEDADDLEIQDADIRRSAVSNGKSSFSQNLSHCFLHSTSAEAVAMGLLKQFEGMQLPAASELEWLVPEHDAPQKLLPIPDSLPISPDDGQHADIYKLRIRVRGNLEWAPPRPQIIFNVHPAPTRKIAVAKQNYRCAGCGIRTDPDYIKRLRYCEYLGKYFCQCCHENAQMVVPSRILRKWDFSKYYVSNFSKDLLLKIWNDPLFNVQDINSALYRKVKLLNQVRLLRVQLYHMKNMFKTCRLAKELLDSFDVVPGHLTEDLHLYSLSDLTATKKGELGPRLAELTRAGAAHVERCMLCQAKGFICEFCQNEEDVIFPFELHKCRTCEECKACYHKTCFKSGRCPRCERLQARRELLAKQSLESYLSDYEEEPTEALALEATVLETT
As to the kind of experiment: co-IP; endogenous proteins, synovial fluid containing synoviocytes from CIA mice at the indicated times (also from CIA mice treated with TIPTP or vehicle); NP-40 buffer lysates, IP with anti-p22phox or anti-Rubicon, protein A/G agarose, immunoblot.

Test [4] addresses T2, Run/cysteine-rich-domain-containing Beclin1-interacting autophagy protein (Rubicon) (mouse, endogenous) (mouse (endogenous in synoviocytes of CIA mice, BMDMs)). As to the kind of experiment: co-IP; endogenous proteins, mouse BMDMs primed with LPS (100 ng/ml), treated with compound 1 or TIPTP for 1 h, activated with ATP (1 mM) for 30 min; IP with anti-Rubicon, immunoblot.

No constants are given. Whether binding was seen depends on the method and setting. Binding seen in cells or lysates may run through a third protein. Some entries that bind do so weakly or less than the wild type.

B1: Rubicon (human, endogenous) (protein, UniProt Q92622 1-972)
chain: MRPEGAGMELGGGEERLPEESRREHWQLLGNLKTTVEGLVSTNSPNVWSKYGGLERLCRDMQSILYHGLIRDQACRRQTDYWQFVKDIRWLSPHSALHVEKFISVHENDQSSADGASERAVAELWLQHSLQYHCLSAQLRPLLGDRQYIRKFYTDAAFLLSDAHVTAMLQCLEAVEQNNPRLLAQIDASMFARKHESPLLVTKSQSLTALPSSTYTPPNSYAQHSYFGSFSSLHQSVPNNGSERRSTSFPLSGPPRKPQESRGHVSPAEDQTIQAPPVSVSALARDSPLTPNEMSSSTLTSPIEASWVSSQNDSPGDASEGPEYLAIGNLDPRGRTASCQSHSSNAESSSSNLFSSSSSQKPDSAASSLGDQEGGGESQLSSVLRRSSFSEGQTLTVTSGAKKSHIRSHSDTSIASRGAPESCNDKAKLRGPLPYSGQSSEVSTPSSLYMEYEGGRYLCSGEGMFRRPSEGQSLISYLSEQDFGSCADLEKENAHFSISESLIAAIELMKCNMMSQCLEEEEVEEEDSDREIQELKQKIRLRRQQIRTKNLLPMYQEAEHGSFRVTSSSSQFSSRDSAQLSDSGSADEVDEFEIQDADIRRNTASSSKSFVSSQSFSHCFLHSTSAEAVAMGLLKQFEGMQLPAASELEWLVPEHDAPQKLLPIPDSLPISPDDGQHADIYKLRIRVRGNLEWAPPRPQIIFNVHPAPTRKIAVAKQNYRCAGCGIRTDPDYIKRLRYCEYLGKYFCQCCHENAQMAIPSRVLRKWDFSKYYVSNFSKDLLIKIWNDPLFNVQDINSALYRKVKLLNQVRLLRVQLCHMKNMFKTCRLAKELLDSFDTVPGHLTEDLHLYSLNDLTATRKGELGPRLAELTRAGATHVERCMLCQAKGFICEFCQNEDDIIFPFELHKCRTCEECKACYHKACFKSGSCPRCERLQARREALARQSLESYLSDYEEEPAEALALEAAVLEAT
As to B1, the binding result in test [1] and in test [2] was “binds” each time.

B2: p22phox subunit of NADPH oxidase (mouse, endogenous) (protein, UniProt Q61462 1-192)
chain: MGQIEWAMWANEQALASGLILITGGIVATAGRFTQWYFGAYSIAAGVLICLLEYPRGKRKKGSTMERCGQKYLTSVVKLFGPLTRNYYVRAALHFLLSVPAGFLLATILGTVCLAIASVIYLLAAIRGEQWTPIEPKPKERPQVGGTIKQPPTNPPPRPPAEVRKKPSEGEEEAASAGGPQVNPMPVTDEVV
With B2, the binding entry in test [3] and in test [4] was “binds” throughout.
